# For at least one compound, name, drawing or mass did not settle the structure.
# Tested on: isolated spinal cord preparations
# Assay: Primary afferents depolarization (DR-DRPs) in isolated spinal cord
# Set-up: species or system rat
# Conditions: bicuculline 10 μM; data not shown
# Experimental: Experiments were performed on lumbar (L) spinal cord preparations isolated from neonatal Wistar rats (P0-P1). All efforts were made to reduce the number of animals used and to minimize animal suffering. The experimental setup was the same as described previously (Taccola and Nistri, 2004). The spinal cord was superfused (5 ml min-1) with Krebs solution of the following composition (in mM): NaCl, 113; KCl, 4.5; MgCl2×7H2O, 1; CaCl2, 2; NaH2PO4, 1; NaHCO3, 25; glucose, 11; gassed with 95% O2-5% CO2; pH 7.4 at room temperature. All agents were bath-applied via the superfusing solution at the concentrations mentioned in the text. Recordings were obtained with glass suction electrodes (containing an Ag—AgCl pellet) filled with Krebs solution. Miniature bipolar suction electrodes were used in order to deliver single or repetitive electrical stimuli to DRs to evoke DR-DR potentials (DR-DRPs) (Kerkut and Bagust, 1995). Stimulus intensity was calculated in terms of threshold (Th), defined as the minimum intensity to elicit a detectable response in the homolateral VR.
# Depolarizing action of GABA on the axons of primary afferents underlies primary afferents depolarization (PAD), that is a depolarizing response evoked by dorsal root stimulation in the neighboring dorsal root (Willis, 2006; Rudomin and Schmidt, 1999). […]
smiles,measurement,value
CN1CCc2cc3c(cc2[C@H]1[C@@H]1OC(=O)c2c1ccc1c2OCO1)OCO3 [bicuculline],PAD evoked in DRL5 by DRL4 stimulation,completely suppressed

# — patent US20120252894A1, “COMPOUNDS FOR ALLEVIATING PAIN AND STRESS IN FETUS AND NEWBORN” (priority 2011, published 2012)
